Laboratory results: the supplement of paper PMC10849652
The list shows a part of the results.

By UniProt entry, the sequences of proteins in these tests, tags left out. Where a name states a change or a piece, a line headed by the entry shows the natural chain unless it says otherwise.
UniProt Q6P179: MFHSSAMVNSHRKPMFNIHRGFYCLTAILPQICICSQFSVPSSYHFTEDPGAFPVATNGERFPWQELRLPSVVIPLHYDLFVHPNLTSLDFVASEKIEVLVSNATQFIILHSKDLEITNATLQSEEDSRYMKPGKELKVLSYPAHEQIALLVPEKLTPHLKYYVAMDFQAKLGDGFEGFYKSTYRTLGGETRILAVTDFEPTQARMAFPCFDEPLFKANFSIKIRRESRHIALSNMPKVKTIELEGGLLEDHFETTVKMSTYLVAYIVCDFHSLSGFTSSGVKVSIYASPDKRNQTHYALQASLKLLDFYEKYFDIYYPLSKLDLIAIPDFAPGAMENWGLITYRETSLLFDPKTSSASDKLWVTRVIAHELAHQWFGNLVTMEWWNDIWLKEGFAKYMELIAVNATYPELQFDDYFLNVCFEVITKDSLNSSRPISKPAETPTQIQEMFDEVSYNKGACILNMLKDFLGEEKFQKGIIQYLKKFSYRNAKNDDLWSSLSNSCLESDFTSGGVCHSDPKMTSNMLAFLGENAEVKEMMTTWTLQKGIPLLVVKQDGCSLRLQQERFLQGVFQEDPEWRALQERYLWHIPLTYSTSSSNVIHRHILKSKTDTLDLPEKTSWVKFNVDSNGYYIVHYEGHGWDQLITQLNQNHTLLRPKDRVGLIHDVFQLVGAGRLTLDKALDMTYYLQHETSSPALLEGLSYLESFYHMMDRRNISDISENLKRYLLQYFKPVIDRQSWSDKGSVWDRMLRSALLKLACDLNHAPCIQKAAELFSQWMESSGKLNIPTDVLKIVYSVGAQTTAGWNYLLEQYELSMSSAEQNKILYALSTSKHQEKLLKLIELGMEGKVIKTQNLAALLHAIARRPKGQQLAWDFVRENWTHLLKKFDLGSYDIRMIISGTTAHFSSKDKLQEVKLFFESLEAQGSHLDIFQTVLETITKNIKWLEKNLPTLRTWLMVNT
UniProt Q9UF33: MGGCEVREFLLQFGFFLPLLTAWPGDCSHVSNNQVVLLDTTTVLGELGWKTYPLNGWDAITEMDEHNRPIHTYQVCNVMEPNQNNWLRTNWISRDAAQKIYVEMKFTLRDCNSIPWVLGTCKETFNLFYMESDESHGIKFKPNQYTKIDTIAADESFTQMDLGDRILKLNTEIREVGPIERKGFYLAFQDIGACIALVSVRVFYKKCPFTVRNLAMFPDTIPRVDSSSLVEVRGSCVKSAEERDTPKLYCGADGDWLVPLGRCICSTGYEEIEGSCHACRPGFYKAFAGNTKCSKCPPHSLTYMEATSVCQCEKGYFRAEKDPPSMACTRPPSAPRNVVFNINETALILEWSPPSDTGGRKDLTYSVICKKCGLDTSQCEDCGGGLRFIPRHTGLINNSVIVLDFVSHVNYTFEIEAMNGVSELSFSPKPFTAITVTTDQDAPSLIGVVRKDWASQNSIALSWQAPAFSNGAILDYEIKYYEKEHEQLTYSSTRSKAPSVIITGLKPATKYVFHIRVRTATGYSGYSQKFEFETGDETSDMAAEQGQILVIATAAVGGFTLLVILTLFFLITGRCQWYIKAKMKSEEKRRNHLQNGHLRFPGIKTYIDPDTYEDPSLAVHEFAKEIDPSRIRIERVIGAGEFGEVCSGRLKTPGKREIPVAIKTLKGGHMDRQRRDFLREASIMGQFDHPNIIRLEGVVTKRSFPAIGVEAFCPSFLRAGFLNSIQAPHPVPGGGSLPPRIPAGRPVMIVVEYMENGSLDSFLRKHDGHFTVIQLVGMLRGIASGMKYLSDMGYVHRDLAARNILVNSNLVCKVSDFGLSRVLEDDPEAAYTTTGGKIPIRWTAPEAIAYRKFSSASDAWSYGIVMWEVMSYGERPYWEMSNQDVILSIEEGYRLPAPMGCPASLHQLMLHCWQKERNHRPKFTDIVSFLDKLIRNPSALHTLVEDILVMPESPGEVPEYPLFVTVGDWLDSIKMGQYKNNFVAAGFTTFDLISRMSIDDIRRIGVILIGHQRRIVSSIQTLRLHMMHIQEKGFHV
UniProt Q6IPR1: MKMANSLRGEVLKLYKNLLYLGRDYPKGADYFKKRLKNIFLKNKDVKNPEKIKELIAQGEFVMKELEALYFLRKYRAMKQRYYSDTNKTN
UniProt Q14674: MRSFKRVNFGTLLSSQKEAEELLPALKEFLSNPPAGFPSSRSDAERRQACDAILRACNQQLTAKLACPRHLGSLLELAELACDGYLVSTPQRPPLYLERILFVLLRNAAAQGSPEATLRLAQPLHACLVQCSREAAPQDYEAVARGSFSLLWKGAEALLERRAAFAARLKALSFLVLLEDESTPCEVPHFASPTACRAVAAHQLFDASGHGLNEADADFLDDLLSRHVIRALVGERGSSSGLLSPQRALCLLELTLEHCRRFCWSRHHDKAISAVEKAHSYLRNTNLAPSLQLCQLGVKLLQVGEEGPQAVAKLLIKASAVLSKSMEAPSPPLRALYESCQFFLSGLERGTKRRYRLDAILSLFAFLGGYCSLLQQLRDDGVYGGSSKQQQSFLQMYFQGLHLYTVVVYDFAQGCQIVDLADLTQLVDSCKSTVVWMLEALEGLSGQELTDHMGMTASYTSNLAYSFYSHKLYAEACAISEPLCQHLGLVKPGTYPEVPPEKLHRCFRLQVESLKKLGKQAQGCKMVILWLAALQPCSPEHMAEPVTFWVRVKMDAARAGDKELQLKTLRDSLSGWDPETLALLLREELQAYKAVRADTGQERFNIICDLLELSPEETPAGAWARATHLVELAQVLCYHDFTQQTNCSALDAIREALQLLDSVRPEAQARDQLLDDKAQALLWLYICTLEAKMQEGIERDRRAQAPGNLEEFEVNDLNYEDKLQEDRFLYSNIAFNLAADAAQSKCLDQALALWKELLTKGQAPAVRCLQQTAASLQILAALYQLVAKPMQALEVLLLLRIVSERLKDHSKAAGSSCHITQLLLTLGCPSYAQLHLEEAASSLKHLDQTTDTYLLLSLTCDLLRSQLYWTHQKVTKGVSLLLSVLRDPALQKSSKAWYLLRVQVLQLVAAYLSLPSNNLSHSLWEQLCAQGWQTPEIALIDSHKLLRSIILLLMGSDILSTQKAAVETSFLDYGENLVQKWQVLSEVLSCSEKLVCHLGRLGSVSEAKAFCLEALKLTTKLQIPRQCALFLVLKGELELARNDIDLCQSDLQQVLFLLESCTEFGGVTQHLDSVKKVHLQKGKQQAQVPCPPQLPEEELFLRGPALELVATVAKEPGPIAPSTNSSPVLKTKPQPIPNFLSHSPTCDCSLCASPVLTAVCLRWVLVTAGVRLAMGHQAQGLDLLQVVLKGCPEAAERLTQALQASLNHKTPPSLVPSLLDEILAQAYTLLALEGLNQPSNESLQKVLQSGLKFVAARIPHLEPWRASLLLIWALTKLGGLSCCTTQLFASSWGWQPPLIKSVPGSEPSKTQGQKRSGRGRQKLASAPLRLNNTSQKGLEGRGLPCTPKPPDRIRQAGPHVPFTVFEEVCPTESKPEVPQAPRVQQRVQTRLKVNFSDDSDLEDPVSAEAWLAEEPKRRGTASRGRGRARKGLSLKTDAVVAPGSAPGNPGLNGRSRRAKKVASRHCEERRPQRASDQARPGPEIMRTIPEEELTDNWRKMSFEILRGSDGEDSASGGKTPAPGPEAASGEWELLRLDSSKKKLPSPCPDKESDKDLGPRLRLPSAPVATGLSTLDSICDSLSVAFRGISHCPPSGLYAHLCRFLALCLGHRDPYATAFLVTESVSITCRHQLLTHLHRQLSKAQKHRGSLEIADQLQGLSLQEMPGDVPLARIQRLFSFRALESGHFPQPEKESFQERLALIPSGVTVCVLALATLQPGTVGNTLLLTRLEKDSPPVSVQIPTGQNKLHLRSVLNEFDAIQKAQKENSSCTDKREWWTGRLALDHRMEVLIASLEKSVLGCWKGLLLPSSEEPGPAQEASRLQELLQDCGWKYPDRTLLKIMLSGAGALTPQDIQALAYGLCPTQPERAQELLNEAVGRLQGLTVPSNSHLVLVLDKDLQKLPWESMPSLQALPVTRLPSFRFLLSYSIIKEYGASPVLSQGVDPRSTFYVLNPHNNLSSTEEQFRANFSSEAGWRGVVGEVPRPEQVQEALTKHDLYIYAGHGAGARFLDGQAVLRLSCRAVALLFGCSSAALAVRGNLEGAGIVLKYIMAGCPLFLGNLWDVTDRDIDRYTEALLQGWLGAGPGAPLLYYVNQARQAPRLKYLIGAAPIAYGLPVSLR
UniProt Q9H6S3: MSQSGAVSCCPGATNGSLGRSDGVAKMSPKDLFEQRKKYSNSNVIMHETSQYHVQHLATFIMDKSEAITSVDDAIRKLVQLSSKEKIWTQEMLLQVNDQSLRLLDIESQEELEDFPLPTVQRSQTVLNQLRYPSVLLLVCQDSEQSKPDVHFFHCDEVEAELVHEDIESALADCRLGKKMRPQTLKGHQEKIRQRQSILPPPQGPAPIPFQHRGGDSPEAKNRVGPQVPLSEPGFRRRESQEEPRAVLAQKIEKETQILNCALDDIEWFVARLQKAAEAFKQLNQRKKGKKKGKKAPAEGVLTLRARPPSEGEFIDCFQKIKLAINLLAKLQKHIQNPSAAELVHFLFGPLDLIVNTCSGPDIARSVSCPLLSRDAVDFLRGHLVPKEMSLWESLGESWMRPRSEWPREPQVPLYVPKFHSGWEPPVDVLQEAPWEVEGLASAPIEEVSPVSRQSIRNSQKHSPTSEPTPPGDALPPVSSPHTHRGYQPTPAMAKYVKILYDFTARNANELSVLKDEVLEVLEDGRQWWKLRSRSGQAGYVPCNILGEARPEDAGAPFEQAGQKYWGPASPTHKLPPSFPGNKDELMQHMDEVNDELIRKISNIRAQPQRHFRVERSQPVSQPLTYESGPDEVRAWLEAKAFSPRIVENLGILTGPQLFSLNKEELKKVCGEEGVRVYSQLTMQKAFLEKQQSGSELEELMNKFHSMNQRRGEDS
UniProt P19447: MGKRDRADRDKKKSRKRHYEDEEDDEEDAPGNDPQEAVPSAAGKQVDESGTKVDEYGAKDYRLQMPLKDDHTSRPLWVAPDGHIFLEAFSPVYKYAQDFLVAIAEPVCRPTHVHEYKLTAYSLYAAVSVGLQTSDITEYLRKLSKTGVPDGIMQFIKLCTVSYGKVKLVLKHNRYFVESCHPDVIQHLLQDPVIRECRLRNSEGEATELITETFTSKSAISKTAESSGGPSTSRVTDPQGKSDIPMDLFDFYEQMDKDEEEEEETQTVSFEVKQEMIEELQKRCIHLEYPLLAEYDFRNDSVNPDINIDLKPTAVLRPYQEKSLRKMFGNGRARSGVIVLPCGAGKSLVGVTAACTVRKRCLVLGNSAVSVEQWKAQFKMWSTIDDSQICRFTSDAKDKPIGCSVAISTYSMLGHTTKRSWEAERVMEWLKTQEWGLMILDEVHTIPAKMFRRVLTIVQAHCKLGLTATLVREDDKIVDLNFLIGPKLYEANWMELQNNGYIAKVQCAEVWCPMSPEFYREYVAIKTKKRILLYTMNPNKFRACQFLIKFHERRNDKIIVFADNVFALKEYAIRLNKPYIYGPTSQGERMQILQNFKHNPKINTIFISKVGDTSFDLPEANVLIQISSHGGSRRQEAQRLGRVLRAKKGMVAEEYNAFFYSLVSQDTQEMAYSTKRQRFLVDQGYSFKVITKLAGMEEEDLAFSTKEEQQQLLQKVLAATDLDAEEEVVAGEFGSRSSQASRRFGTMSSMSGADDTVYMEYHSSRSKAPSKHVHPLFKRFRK

Tests used:
Assay in all cases: log2 fold change, soluble protein after heating vs DMSO (PISA); higher = thermal stabilisation; K562 cells, 10 uM, 30 min; active = over 0.2 and 3.5 SD of the protein, either way, in both replicates (recomputed)
volasertib = compound: CC[C@@H]1C(=O)N(C)c2cnc(Nc3ccc(C(=O)N[C@H]4CC[C@H](N5CCN(CC6CC6)CC5)CC4)cc3OC)nc2N1C(C)C [volasertib]
Method in brief: (§1)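 Thermal stability values are relative to control samples and come from duplicates. They are expressed as log2 fold changes. For measurement, K562 cells (2×10^6 cells/mL) received 10 μM compound for 30 min, and aliquots were heated for 3 min over 48°C-58°C, pooled, and extracted at 4°C in PBS with 0.5% NP-40. Soluble protein, the supernatant after 21,000xg for 90 min, was quantified by TMTpro 16plex LC-MS/MS with equalised channel sums.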

[1] = compound: CC[C@H](C)N1C=C(C2=C(C=C(C=C21)C3=CN=C(C=C3)N4CCNCC4)C(=O)NCC5=C(C=C(NC5=O)C)C)C
Method in brief: as §1

epoxomicin = compound: CC[C@H](C)[C@@H](C(=O)N[C@@H]([C@@H](C)O)C(=O)N[C@@H](CC(C)C)C(=O)[C@]1(CO1)C)NC(=O)[C@H]([C@@H](C)CC)N(C)C(=O)C [epoxomicin]
Method in brief: as §1

[2] = compound: CCn1c(C(=O)N(C2CC2)C2CC2)cc2c3c(ncn3C)c(Nc3cc(C)n(C)n3)nc21
Method in brief: as §1

[3] = compound: CN1C2=C(C3=C1C(=O)N(N=C3)CC4=CC(=CC=C4)N)SC(=C2)S(=O)C
Method in brief: as §1

saracatinib = compound: CN1CCN(CCOc2cc(OC3CCOCC3)c3c(Nc4c(Cl)ccc5c4OCO5)ncnc3c2)CC1 [saracatinib]
Method in brief: as §1

[4] = compound: CNC(=O)C1=CC=CC=C1NC2=NC(=NC=C2Cl)NC3=C(C=C(C=C3)N4CCOCC4)OC
Method in brief: as §1

[5] = compound: CNc1nc(-c2ccc3c(N)n[nH]c3c2)cc(N2C[C@@H](C(=O)NC3CCCCC3)CC[C@H]2C)n1
Method in brief: as §1

[6] = compound: CC[C@@H]1C(=O)N(C)c2cnc(Nc3ccc(C(=O)NC4CCN(C)CC4)cc3OC)nc2N1C1CCCC1
Method in brief: as §1

[7] = compound: CN(C)CC(=O)Nc1ccc2[nH]c(=O)c3ccccc3c2c1
Method in brief: as §1

rosiglitazone = compound: CN(CCOC1=CC=C(C=C1)C[C@H]2C(=O)NC(=O)S2)C3=CC=CC=N3 (racemic) [rosiglitazone]
Method in brief: as §1

sotrastaurin = compound: CN1CCN(c2nc(C3=C(c4c[nH]c5ccccc45)C(=O)NC3=O)c3ccccc3n2)CC1 [sotrastaurin]
Method in brief: as §1

alvocidib = compound: CN1CC[C@H](c2c(O)cc(O)c3c(=O)cc(-c4ccccc4Cl)oc23)[C@H](O)C1 [alvocidib]
Method in brief: as §1

Tubastatin A = compound: CN1CCc2c(c3ccccc3n2Cc2ccc(C(=O)NO)cc2)C1 [Tubastatin A]
Method in brief: as §1

defactinib = compound: CNC(=O)c1ccc(Nc2ncc(C(F)(F)F)c(NCc3nccnc3N(C)S(C)(=O)=O)n2)cc1 [defactinib]
Method in brief: as §1

rucaparib = compound: CNCc1ccc(-c2[nH]c3cc(F)cc4c3c2CCNC4=O)cc1 [rucaparib]
Method in brief: as §1

encorafenib = compound: COC(=O)N[C@@H](C)CNc1nccc(-c2cn(C(C)C)nc2-c2cc(Cl)cc(NS(C)(=O)=O)c2F)n1 [encorafenib]
Method in brief: as §1

[8] = compound: COC(=O)[C@H](CCSC)NC(=O)C1=C(C=C(C=C1)NC[C@H](CS)N)C2=CC=CC=C2
Method in brief: as §1

[9] = compound: CCn1cc(-c2ccnc3[nH]c(-c4cccc(CN(C)C)c4)cc23)c(-c2ccc(NC(=O)N(C)C)cc2)n1
Method in brief: as §1

[10] = compound: CN1CCC(CNc2ccc3ncc(-c4cccc(OC(F)(F)F)c4)n3n2)CC1
Method in brief: as §1

Measured: log2 fold change

ERAP2 (UniProt Q6P179)
inactive: volasertib -0.209 | [1] -0.177 | epoxomicin 0.023 | [2] 0.07 | [3] -0.271 | saracatinib -0.2 | [4] 0.05 | [5] -0.054

EPHA6 (UniProt Q9UF33)
inactive: [6] 0.165 | volasertib 0.027 | [1] -0.271 | epoxomicin -0.444 | [7] -0.369 | rosiglitazone -0.096 | [3] -0.058 | saracatinib 0.03 | sotrastaurin 0.364 | alvocidib 0.029 | Tubastatin A -0.107 | defactinib 0.106 | rucaparib -0.046 | [5] -0.071 | encorafenib -0.174 | [8] 0.123

ETFRF1 (UniProt Q6IPR1)
inactive: volasertib 0.034 | [1] -0.106 | epoxomicin 0.045 | [2] 0.005 | [9] 0.009 | [7] 0.039 | rosiglitazone 0.017 | [3] -0.053 | [10] 0.12 | saracatinib 0.186 | sotrastaurin 0.075 | alvocidib -0.158 | Tubastatin A -0.024 | [4] -0.011 | defactinib -0.048 | [5] -0.092 | [8] 0.095

ESPL1 (UniProt Q14674)
inactive: volasertib -0.154 | [1] 0.059 | epoxomicin -0.119 | [2] -0.075 | [9] 0.064 | [7] -0.113 | rosiglitazone -0.048 | [10] -0.158 | sotrastaurin 0.046 | alvocidib 0.134 | [4] -0.025 | defactinib 0.079 | [8] -0.044

EPS8L2 isoform 3 (UniProt Q9H6S3)
inactive: [6] -0.032 | epoxomicin 0.018 | [2] -0.272 | [3] -0.106 | saracatinib 0.039 | sotrastaurin -0.159 | Tubastatin A 0.047 | [4] -0.013 | rucaparib -0.049 | [5] 0.087 | encorafenib -0.031

ERCC3 (UniProt P19447)
inactive: volasertib -0.137 | [1] 0.058 | epoxomicin -0.055 | [2] -0.116 | [9] 0.018 | [7] 0.069 | rosiglitazone -0.019 | [3] 0.19 | [10] -0.065 | saracatinib -0.117 | sotrastaurin -0.098 | alvocidib -0.001 | Tubastatin A -0.06 | [4] 0.029 | defactinib -0.013 | [5] 0.04 | [8] -0.072

ETF1 isoform 2 (UniProt P62495)
inactive: [6] 0.393 | volasertib -0.007 | [9] 0.08 | [7] 0.06 | rosiglitazone 0.034 | [3] -0.304 | [10] -0.274 | saracatinib 0.108 | defactinib 0.035 | rucaparib -0.29 | [5] -0.068 | encorafenib 0.171 | [8] -0.148
